PubChem BioAssay AID686943, Drosophila RNAi Screening Center | 2013
Purpose: 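Knockdowns that increase or decrease active ERK after insulin receptor stimulation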 (primary screen). System: Drosophila S2R+ haemocyte-like cells expressing YFP-tagged ERK (Rolled). Reagents: long dsRNA against Drosophila genes. Treatment: insulin stimulation versus unstimulated cells; dose and duration not given. Measurement: 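Antibody staining for doubly phosphorylated ERK divided by ERK-YFP signal, as plate z-scores, in insulin-treated and untreated cells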. Reading the numbers: replicate 1, z-score of dpERK with insulin and replicate 2, z-score of dpERK with insulin: higher = more active ERK per ERK-YFP after insulin; replicate 1, z-score of dpERK under basal conditions: higher = more basal active ERK per ERK-YFP; replicate 1, z-score of ERK-YFP with insulin: higher = more YFP-tagged ERK signal.
The screen tested about 23,000 reagents; this is a random part of those with a known target gene and a result. 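Extra replicates exist only for a retested subset of genes; insulin dose and duration not given; both raised and lowered dpERK matter.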 Names joined by + are all predicted targets of the reagent. Reagent sequences are not shown. The record does not give: the amount of reagent, the time to read-out.

| target gene | dsRNA | replicate 1, z-score of dpERK with insulin | replicate 2, z-score of dpERK with insulin | replicate 1, z-score of dpERK under basal conditions | replicate 1, z-score of ERK-YFP with insulin |
| --- | --- | --- | --- | --- | --- |
| Golgin104 (Golgin 104) | DRSC10459 | 0.31 | 0.54 | 0.91 | 1.01 |
| CG12104 | DRSC08254 | 0.37 | 0.3 | -2.59 | 0.4 |
| Pdi (Protein disulfide isomerase) | DRSC11250 | 0.33 | 0.72 | -0.49 | -0.22 |
| CG32026 | DRSC08950 | -0.04 | -0.02 | -0.22 | 0.55 |
| CG11790 | DRSC14390 | -0.11 | -0.18 | -0.91 | -0.67 |
| RpL15 (Ribosomal protein L15) | DRSC20963 | -2.76 | 2.55 | -1.3 | -4.15 |
| CG34001 | DRSC09042 | -0.27 | 0.06 | 0.74 | 0.61 |
| FucTA (alpha1,3-fucosyltransferase A) | DRSC10733 | 0.33 | -0.84 | 1.16 | -0.02 |
| CG16894 | DRSC06634 | 1 | 0.12 | -0.43 | 0.22 |
| CG16894 | DRSC21785 | -0.01 | 0.21 | -0.44 | 0.24 |
| CG4984 + CG4975 | DRSC06907 | 0.06 | 0.3 | -0.74 | 0.21 |
| CG4984 + CG4975 | DRSC06908 | 0.24 | 0.3 | -0.01 | 0.49 |

4 entries from above, reduced to “replicate 1, z-score of ERK-YFP with insulin”:
CG16894 [DRSC06634] = 0.22
CG16894 [DRSC21785] = 0.24
CG4984 + CG4975 [DRSC06907] = 0.21
CG4984 + CG4975 [DRSC06908] = 0.49

Continued.
| target gene | dsRNA | replicate 1, z-score of dpERK with insulin | replicate 2, z-score of dpERK with insulin | replicate 1, z-score of dpERK under basal conditions | replicate 1, z-score of ERK-YFP with insulin |
| --- | --- | --- | --- | --- | --- |
| CG32808 | DRSC17689 | 0.6 | 0.03 | -1 | -0.33 |
| Alg3 (ALG3, alpha-1,3- mannosyltransferase) | DRSC04700 | -0.54 | 0.07 | -0.2 | -0.39 |
| Nup154 (Nucleoporin 154kD) | DRSC03384 | 0.22 | 0.26 | -1.23 | -2.03 |
| Hrb87F (Heterogeneous nuclear ribonucleoprotein at 87F) | DRSC16708 | -0.72 | 0.25 | -0.29 | -0.01 |
| CG43244 | DRSC05336 | -0.07 | 0.24 | -0.04 | 0.01 |
| eIF4B (eukaryotic translation initiation factor 4B) | DRSC20983 | -0.69 | -0.44 | -1.85 | 0.52 |
| CG13160 | DRSC06284 | 0.87 | 0.32 | 1.09 | -0.3 |
| CG31323 | DRSC14901 | 0.41 | -0.21 | -0.59 | -0.2 |
| Rpt3R (Regulatory particle triple-A ATPase 3-related) | DRSC16501 | -1.54 | -2.74 | -1.25 | 0.05 |
| CG7879 | DRSC08600 | -0.27 | 0.1 | -0.12 | -0.51 |
| His2B:CG33870 + His2B:CG33868 + His2B:CG33882 + 21 more | DRSC03757 | -5.24 | -4.27 | -4.41 | -1.94 |
